# Among all 300,000 compounds or so, about 3,700 (1.2%) were called active. The shares of active, inactive and inconclusive entries below differ from those in the screen. The call rests on the fitted dose curve; tested in HEK293 cells. Potencies beside an inconclusive call are fits to weak or partial responses and may not hold up.
# Test: qHTS for Inhibitors of binding or entry into cells for Lassa Virus; further: nearly all actives have a fitted effect of over 50% in size
# Conditions: Lassa virus pseudotype entry inhibition, cell reporter; activity change, negative = inhibition: at 37.9 µM (top of the series) unless noted
# On the % scale 0 is the no-effect control and ±100 the full control effect; potency means the concentration at half of the fitted maximal effect.
Structure (SMILES),Potency,"activity change, negative = inhibition"
CSc1ccc(S(=O)(=O)N2CCC(C(=O)N3CCc4ccccc4C3)CC2)cc1,"inconclusive: 2.24 µM [inhibitor, partial curve, poor fit]",–
CCOC(=O)c1ccc(NC(=O)C2CCCN(c3ncnc4onc(C)c34)C2)cc1 (stereo not given),"inconclusive: 35.5 µM [activator, single point]",–
CCN(CC)S(=O)(=O)c1cccc(C(=O)NC(C(=O)NC2=NCCS2)C(C)C)c1 (stereo not given),–,inactive: -10.5%
Cc1ccc(Nc2c([N+](=O)[O-])c(=O)oc3ccccc23)cc1C,"inconclusive: 15.8 µM [inhibitor, single point]",–
COc1cccc(C2C(C(=O)Nc3cccnc3)=C(C)Nc3nc(SCc4ccccc4)nn32)c1 (stereo not given),–,inactive: -24.6% [at 46.1 µM]
O=C(COC(=O)/C=C/c1ccco1)Nc1ncc(C(F)(F)F)cc1Cl,"inconclusive: 12.6 µM [activator, partial curve, poor fit]",–
Clc1ccc2c(N3CCOCC3)ccnc2c1,–,inactive: -11.4%
O=C1Nc2ccccc2Oc2cc(Oc3ccc(Cl)cc3)ccc21,"inconclusive: 35.5 µM [inhibitor, single point]",–
CCOc1ccc(S(=O)(=O)Nc2cccc(C(=O)NCC(C)(C)N3CCOCC3)c2)cc1,"inconclusive: 35.5 µM [inhibitor, partial curve, poor fit]",–
COc1cc2ncn(-c3cc(OCc4ccccc4Cl)c(C(N)=O)s3)c2cc1OC,active: 0.628 µM,–
C/C(=N/NC(=O)CCC(=O)Nc1ccc(Br)cc1)c1ccc(Br)cc1,"inconclusive: 3.16 µM [activator, partial curve, poor fit]",–
COc1ccc2nc(NC(=O)c3cnccn3)sc2c1,"inconclusive: 18.3 µM [inhibitor, single point]",–
O=C(CSc1nnnn1-c1ccc(O)cc1)Nc1cccc(S(=O)(=O)N2CCCC2)c1,"inconclusive: 11.2 µM [inhibitor, partial curve, poor fit]",–
Cc1cc(NC(=O)C2CCCN(S(=O)(=O)c3cccc4nonc34)C2)ccc1Br (stereo not given),–,inactive: 20% [at 46.1 µM]
CCN(Cc1ccccc1)S(=O)(=O)c1ccc(C(=O)Nc2nnc(C)o2)cc1,"inconclusive: 11.2 µM [inhibitor, partial curve, poor fit]",–
Cc1ccc(Nc2nc3ccccc3c(=O)[nH]2)cc1C,"inconclusive: 14.6 µM [inhibitor, partial curve, poor fit]",–
CC1(C)C(C=C(Cl)Cl)C1C(=O)N(Cc1ccc(Cl)cc1)C1CCS(=O)(=O)C1 (stereo not given),"inconclusive: 14.6 µM [inhibitor, partial curve, poor fit]",–
CCOC(=O)c1sc(N)c(C(=O)Nc2ccccc2OC)c1C,active: 2.51 µM,–
CC1=C(C)/C(=N\OS(=O)(=O)c2ccc(C)cc2)C=CC1=O,active: 6.31 µM,–
CCOc1ccc(C(=O)CSCCC(=O)O)cc1,"inconclusive: 20 µM [inhibitor, partial curve, poor fit]",–
COc1ccccc1NC(=O)Cc1csc(NC(=S)Nc2ccc(C)cc2)n1,"inconclusive: 29.1 µM [inhibitor, single point]",–
CCc1ccc(NC(=O)c2ccc(F)c(S(=O)(=O)NCC3COc4ccccc4O3)c2)cc1 (stereo not given),active: 16.4 µM,–
O=C(CN1CCCCC1)N1CCCc2ccccc21,–,inactive: 2.37%

# Some of the entries above in another layout:
Structure (SMILES)	Potency	activity change, negative = inhibition
CC1=C(C)/C(=N\OS(=O)(=O)c2ccc(C)cc2)C=CC1=O	active: 6.31 µM	–
CCOc1ccc(C(=O)CSCCC(=O)O)cc1	inconclusive: 20 µM [inhibitor, partial curve, poor fit]	–

# Further compounds follow.

Structure (SMILES),Potency,"activity change, negative = inhibition"
CSc1nn(Cc2cccc(F)c2)c(N(C(C)=O)C(C)=O)c1S(=O)(=O)c1ccccc1,"inconclusive: 31.6 µM [inhibitor, single point]",–
CCOc1cccc(C(=O)Nc2cccc(C(=O)NC(C)(C)C)c2)c1,"inconclusive: 18.4 µM [inhibitor, partial curve]",–
C/C(=N\NC(=O)c1nnn(-c2nonc2N)c1-c1cccs1)c1ccc(O)cc1,–,inactive: -35.3% [at 46.1 µM]
CCCCC(=O)Nc1cnc(NC(=O)c2ccco2)cc1C,–,inactive: -18.6%
Cc1ccc(NC(=O)Nc2cccs2)cc1,"inconclusive: 4.47 µM [activator, single point]",–
COc1cc2c(cc1NC(=O)C(c1ccccc1)c1ccccc1)CCCC2,"inconclusive: 5.62 µM [inhibitor, full curve, poor fit]",–
Cn1c2ccccc2c2ncn(CCC3=CCCCC3)c(=O)c21,–,inactive: 4.18%
c1ccc2c(-c3cncc4ccccc34)cncc2c1,"inconclusive: 35.5 µM [inhibitor, single point]",–
COc1ccccc1/C=C/C(=O)N1CCc2cc(OC)c(OC)cc2C1C (stereo not given),"inconclusive: 17.8 µM [inhibitor, single point]",–
CCN(CCCNC(=O)CCCCn1c(=O)[nH]c2ccccc2c1=O)c1ccccc1,"inconclusive: 16.4 µM [inhibitor, partial curve, poor fit]",–
O=C(COc1ccc(C(=O)c2ccccc2)cc1)NC1CCCCCC1,"inconclusive: 25.9 µM [inhibitor, single point]",–
O=C(c1cccs1)c1coc2ccc(O)cc12,–,inactive: 0%
Cc1cc(-c2ccccc2)oc(=O)c1NC(=O)c1ccccc1,"inconclusive: 3.16 µM [inhibitor, single point]",–
Nc1ccn(Cc2ccc(F)cc2)n1,–,inactive: 6.45% [at 46.1 µM]
C1CC(=NN=C2CCSCC2)CCS1,"inconclusive: 10 µM [activator, partial curve, poor fit]",–
CCOc1ccccc1CNC(=O)CCCN1C(=O)CCn2nc(-c3cccn3C)cc21,–,inactive: -15.2% [at 46.1 µM]
CCOc1ccc(CC(=O)NNC(=O)NC2CCCCC2)cc1,–,inactive: 5.03% [at 46.1 µM]
CCCCn1cnc2c1c(=O)n(CC(=O)c1cc(C)n(C)c1C)c(=O)n2CC(C)C,–,inactive: -10.7%
CC(=O)Nc1ccc(S(=O)(=O)N(Cc2ccccc2)c2ccccc2F)cc1,"inconclusive: 5.01 µM [inhibitor, full curve, poor fit]",–
COCCNC(=O)c1ccc2c(=O)n(Cc3ccco3)c(SCC(=O)NC3CCCC3)nc2c1,–,inactive: 12%
Cc1cccc(N2CCN(C(=O)CSc3nc4ccccc4nc3N3CC(C)OC(C)C3)CC2)c1C (stereo not given),"inconclusive: 11.2 µM [inhibitor, partial curve, poor fit]",–
COc1ccccc1C(=O)NC(=S)Nc1ccc(S(=O)(=O)N2CCN(C)CC2)cc1,"inconclusive: 0.13 µM [inhibitor, full curve, poor fit]",–

# — PubChem BioAssay AID540256 (National Center for Advancing Translational Sciences (NCATS), 2011)
